# The list shows a part of the results.
# B1: SUN4P (Saccharomyces cerevisiae), P53616 (protein)
# chain: MGSSHHHHHHSSGLVPRGSHNGSIYGDLADFSGPYEKFEDGTIPCGQFPSGQGVIPISWLDEGGWSGVENTDTSTGGSCKEGSYCSYACQPGMSKTQWPSDQPSDGRSIGGLLCKDGYLYRSNTDTDYLCEWGVDAAYVVSELSNDVAICLTDYPGTENMVIPTYVQAGDSLPLTVVDQDTYYTWQGLKTSAQYYVNNAGISVEDACVWGSSSSGVGNWAPLNFGAGSSDGVAYLSLIPNPNNGNALNFNVKIVAADDSSTVNGECIYENGSFSGGSDGCTVSVTAGKAKFVLYN
# Key:
# Experiment in all cases: glycan array binding signal (z-score within array); higher = stronger binding
# Details in all cases: glycan notation: IUPAC condensed, linker removed; mutation: R276L
# [1] = target: Fuc(a1-2)Gal(b1-4)[Fuc(a1-3)]GlcNAc
# Summary of the method: (§1)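 Negative Z-scores can be read as non-binding. The Z-score is calculated within each array and then averaged across arrays of one protein sequence at different concentrations or buffers and across linkers. Arrays, 3228 in all, were curated from the Consortium for Functional Glycomics database and kept only where the protein sequence was available.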
# [2] = target: Fuc(a1-2)Gal(b1-4)[Fuc(a1-3)]GlcNAc(b1-2)Man(a1-3)[Fuc(a1-2)Gal(b1-4)[Fuc(a1-3)]GlcNAc(b1-2)Man(a1-6)]Man(b1-4)GlcNAc(b1-4)[Fuc(a1-6)]GlcNAc
# Summary of the method: as §1
# [3] = target: Fuc(a1-2)Gal(b1-4)[Fuc(a1-3)]GlcNAc(b1-2)[Fuc(a1-2)Gal(b1-4)[Fuc(a1-3)]GlcNAc(b1-4)]Man(a1-3)[Fuc(a1-2)Gal(b1-4)[Fuc(a1-3)]GlcNAc(b1-2)Man(a1-6)]Man(b1-4)GlcNAc(b1-4)GlcNAc
# Summary of the method: as §1
# [4] = target: Fuc(a1-2)Gal(b1-4)[Fuc(a1-3)]GlcNAc(b1-3)Gal(b1-4)[Fuc(a1-3)]GlcNAc
# Summary of the method: as §1
# [5] = target: Fuc(a1-2)Gal(b1-4)[Fuc(a1-3)]GlcNAc(b1-3)Gal(b1-4)[Fuc(a1-3)]GlcNAc(b1-3)Gal(b1-4)[Fuc(a1-3)]GlcNAc
# Summary of the method: as §1
# [6] = target: Fuc(a1-2)Gal(b1-4)[Fuc(a1-3)]GlcNAc(b1-3)GalNAc
# Summary of the method: as §1
# [7] = target: Fuc(a1-2)Gal(b1-4)[Fuc(a1-3)]GlcNAc(b1-3)[Neu5Ac(a2-6)Gal(b1-4)GlcNAc(b1-6)]Gal(b1-4)Glc
# Summary of the method: as §1
# [8] = target: Fuc(a1-2)Gal3S(b1-4)GlcNAc
# Summary of the method: as §1
# [9] = target: Fuc(a1-2)Gal6S(b1-3)GlcNAc
# Summary of the method: as §1
# [10] = target: Fuc(a1-2)Gal6S(b1-3)GlcNAc6S
# Summary of the method: as §1
# Fuc(a1-2)Gal6S(b1-4)Glc = target: Fuc(a1-2)Gal6S(b1-4)Glc
# Summary of the method: as §1
# [11] = target: Fuc(a1-2)Gal6S(b1-4)Glc6S
# Summary of the method: as §1
# Fuc(a1-2)[Gal(a1-3)]Gal = target: Fuc(a1-2)[Gal(a1-3)]Gal
# Summary of the method: as §1
# [12] = target: Fuc(a1-2)[Gal(a1-3)]Gal(b1-3)GalNAc
# Summary of the method: as §1
# [13] = target: Fuc(a1-2)[Gal(a1-3)]Gal(b1-3)GalNAc(b1-3)Gal(a1-4)Gal(b1-4)Glc
# Summary of the method: as §1
# [14] = target: Fuc(a1-2)[Gal(a1-3)]Gal(b1-3)GlcNAc
# Summary of the method: as §1
# [15] = target: Fuc(a1-2)[Gal(a1-3)]Gal(b1-3)GlcNAc(b1-2)Man(a1-3)[Fuc(a1-2)[Gal(a1-3)]Gal(b1-3)GlcNAc(b1-2)Man(a1-6)]Man(b1-4)GlcNAc(b1-4)GlcNAc
# Summary of the method: as §1
# [16] = target: Fuc(a1-2)[Gal(a1-3)]Gal(b1-3)GlcNAc(b1-2)Man(a1-3)[Fuc(a1-2)[Gal(a1-3)]Gal(b1-3)GlcNAc(b1-2)Man(a1-6)]Man(b1-4)GlcNAc(b1-4)[Fuc(a1-6)]GlcNAc
# Summary of the method: as §1
# [17] = target: Fuc(a1-2)[Gal(a1-3)]Gal(b1-3)GlcNAc(b1-3)GalNAc
# Summary of the method: as §1
# [18] = target: Fuc(a1-2)[Gal(a1-3)]Gal(b1-3)GlcNAc(b1-6)GalNAc
# Summary of the method: as §1
# [19] = target: Fuc(a1-2)[Gal(a1-3)]Gal(b1-4)Glc
# Summary of the method: as §1
# [20] = target: Fuc(a1-2)[Gal(a1-3)]Gal(b1-4)GlcNAc
# Summary of the method: as §1
# [21] = target: Fuc(a1-2)[Gal(a1-3)]Gal(b1-4)GlcNAc(b1-2)Man
# Summary of the method: as §1
# [22] = target: Fuc(a1-2)[Gal(a1-3)]Gal(b1-4)GlcNAc(b1-2)Man(a1-3)[Fuc(a1-2)[Gal(a1-3)]Gal(b1-4)GlcNAc(b1-2)Man(a1-6)]Man(b1-4)GlcNAc(b1-4)GlcNAc
# Summary of the method: as §1
# [23] = target: Fuc(a1-2)[Gal(a1-3)]Gal(b1-4)GlcNAc(b1-2)Man(a1-3)[Fuc(a1-2)[Gal(a1-3)]Gal(b1-4)GlcNAc(b1-2)Man(a1-6)]Man(b1-4)GlcNAc(b1-4)[Fuc(a1-6)]GlcNAc
# Summary of the method: as §1
# [24] = target: Fuc(a1-2)[Gal(a1-3)]Gal(b1-4)GlcNAc(b1-3)GalNAc
# Summary of the method: as §1
# [25] = target: Fuc(a1-2)[Gal(a1-3)]Gal(b1-4)GlcNAc(b1-3)[Fuc(a1-2)[Gal(a1-3)]Gal(b1-4)GlcNAc(b1-6)]GalNAc
# Summary of the method: as §1
# [26] = target: Fuc(a1-2)[Gal(a1-3)]Gal(b1-4)GlcNAc(b1-6)GalNAc
# Summary of the method: as §1
# [27] = target: Fuc(a1-2)[Gal(a1-3)]Gal(b1-4)[Fuc(a1-3)]Glc
# Summary of the method: as §1
# [28] = target: Fuc(a1-2)[Gal(a1-3)]Gal(b1-4)[Fuc(a1-3)]GlcNAc
# Summary of the method: as §1
# [29] = target: Fuc(a1-2)[Gal(a1-3)]Gal(b1-4)[Fuc(a1-3)]GlcNAc(b1-3)GalNAc
# Summary of the method: as §1
# [30] = target: Fuc(a1-2)[Gal(a1-4)]Gal(b1-4)GlcNAc
# Summary of the method: as §1
# [31] = target: Fuc(a1-2)[GalNAc(a1-3)]Gal
# Summary of the method: as §1
# [32] = target: Fuc(a1-2)[GalNAc(a1-3)]Gal(b1-3)GalNAc(a1-3)[Fuc(a1-2)]Gal(b1-4)GlcNAc
# Summary of the method: as §1
# [33] = target: Fuc(a1-2)[GalNAc(a1-3)]Gal(b1-3)GalNAc(b1-3)Gal(a1-4)Gal(b1-4)Glc
# Summary of the method: as §1
# [34] = target: Fuc(a1-2)[GalNAc(a1-3)]Gal(b1-3)GlcNAc
# Summary of the method: as §1
# [35] = target: Fuc(a1-2)[GalNAc(a1-3)]Gal(b1-3)GlcNAc(b1-2)Man(a1-3)[Fuc(a1-2)[GalNAc(a1-3)]Gal(b1-3)GlcNAc(b1-2)Man(a1-6)]Man(b1-4)GlcNAc(b1-4)GlcNAc
# Summary of the method: as §1
# [36] = target: Fuc(a1-2)[GalNAc(a1-3)]Gal(b1-3)GlcNAc(b1-2)Man(a1-3)[Fuc(a1-2)[GalNAc(a1-3)]Gal(b1-3)GlcNAc(b1-2)Man(a1-6)]Man(b1-4)GlcNAc(b1-4)[Fuc(a1-6)]GlcNAc
# Summary of the method: as §1
binder,measurement,setting,value
B1,glycan array binding signal (z-score),[1],-0.469
same,glycan array binding signal (z-score),[2],1.16
same,glycan array binding signal (z-score),[3],0.881
same,glycan array binding signal (z-score),[4],-0.401
same,glycan array binding signal (z-score),[5],0.136
same,glycan array binding signal (z-score),[6],-0.919
same,glycan array binding signal (z-score),[7],0.164
same,glycan array binding signal (z-score),[8],0.469
same,glycan array binding signal (z-score),[9],-0.921
same,glycan array binding signal (z-score),[10],1.32
same,glycan array binding signal (z-score),Fuc(a1-2)Gal6S(b1-4)Glc,-0.976
same,glycan array binding signal (z-score),[11],-0.127
same,glycan array binding signal (z-score),Fuc(a1-2)[Gal(a1-3)]Gal,0.56
same,glycan array binding signal (z-score),[12],-0.474
same,glycan array binding signal (z-score),[13],0.023
same,glycan array binding signal (z-score),[14],0.964
same,glycan array binding signal (z-score),[15],0.856
same,glycan array binding signal (z-score),[16],-1.01
same,glycan array binding signal (z-score),[17],1.04
same,glycan array binding signal (z-score),[18],-0.788
same,glycan array binding signal (z-score),[19],-0.193
same,glycan array binding signal (z-score),[20],-0.808
same,glycan array binding signal (z-score),[21],0.867
same,glycan array binding signal (z-score),[22],-0.113
same,glycan array binding signal (z-score),[23],-0.359
same,glycan array binding signal (z-score),[24],-0.465
same,glycan array binding signal (z-score),[25],0.346
same,glycan array binding signal (z-score),[26],-0.055
same,glycan array binding signal (z-score),[27],-0.341
same,glycan array binding signal (z-score),[28],-0.336
same,glycan array binding signal (z-score),[29],0.363
same,glycan array binding signal (z-score),[30],0.224
same,glycan array binding signal (z-score),[31],-0.644
same,glycan array binding signal (z-score),[32],-0.393
same,glycan array binding signal (z-score),[33],-0.881
same,glycan array binding signal (z-score),[34],-0.545
same,glycan array binding signal (z-score),[35],-0.195
same,glycan array binding signal (z-score),[36],-0.131

# Part of the list above in a different format.
binder	measurement	setting	value
B1	glycan array binding signal (z-score)	[11]	-0.127
same	glycan array binding signal (z-score)	[34]	-0.545
